US8318707B2 (priority 2006, dated 2012)
Read-outs that look alike come from different tables or passages of the source.

Tested on: mixed neural culture of hippocampus cells exposed to kainate
Test: cells
Assay type: cell-based, rat
Details: read-out: neuroprotection concentration (CN50)

| Compound | EC50 (Rattus norvegicus) | EC50 |
| --- | --- | --- |
| CC[C@@H](CO)Nc1nc(NCc2ccccc2)c2ncn(C(C)C)c2n1 [(S)-roscovitine] | 0.19 µM |  |
| CC[C@H](CO)Nc1nc(NCc2ccccc2)c2ncn(C(C)C)c2n1 [(R)-roscovitine] |  | 0.65 µM |
